# Screening data, single-dose tests

From ChEMBL document CHEMBL3988442, “University of Dundee, Small-Polar-MMV Screening Library” (2021).

T. brucei: 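Whole-parasite assay of Trypanosoma brucei over 72 hours; the read-out is not stated. Tested at 30 µM. Direction is inferred from retests: higher values go with stronger inhibition. Values scatter widely below zero; nearly all retest evidence comes from the higher of the two concentrations used. Of about 64,000 compounds tested this way, about 940 (1.5%) reached 50% or more in at least one test.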
Toxoplasma: 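Assay of Toxoplasma gondii numbers, read through their beta-galactosidase reporter with a colour substrate. Compounds at 10 µM. The record gives no direction; the compounds picked for IC50 retests had high values, so higher reads as fewer parasites. Size under these conditions: about 67,000 compounds, about 260 of them at 50% or above in at least one test.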

The filed quantity is “Percent Effect” (%). The controls that fix the scale are not given in the record; negative values are as filed. This is an unselected part of the compounds tested.

COc1ccc(C(=O)N2CCOc3ccncc32)cc1 gave T. brucei: -6.02%; Toxoplasma: -0.2497%. For CCOCC1CN(C(=O)c2ccsc2)Cc2nn(C)cc21 (centres unmarked) the result was T. brucei: -9.284%; Toxoplasma: 4.225%. With Cc1ccccc1OCCCNC(=O)C1(C)CC(=O)N2C=CC=CC2=N1 (centres unmarked) the screen gave T. brucei: 6.6%; Toxoplasma: -4.599%. Cc1cccc(C(=O)N2CCN(S(C)(=O)=O)[C@@H](C)C2)c1C gave T. brucei: -30.71%; Toxoplasma: 0.2189%.

For O=C(NCCN1CCOC1=O)c1ccc2sccc2c1 the result was T. brucei: -20.16%; Toxoplasma: -4.003%. For CC(C)c1cc(C(=O)N2C[C@@H](C)[C@](O)(C3CC3)C2)[nH]n1 the result was T. brucei: -4.415%; Toxoplasma: -7.633%. Result for CCCC(=O)N1CCC(c2cc3n(n2)[C@@H](C(F)(F)F)C[C@@H](C)N3)CC1 was T. brucei: 9.178%; Toxoplasma: -11.75%. CC(C)c1nsc(N2CCC(OCCN3CCOCC3)CC2)n1 gave T. brucei: -5.694%; Toxoplasma: 5.378%.

NC(=O)C1CCN(C(=O)CCn2ccc3cc(Br)ccc32)CC1 gave T. brucei: 32.65%; Toxoplasma: 4.943%. Result for CCCNc1ccc(C(=O)NCCc2cccc(OC)c2)cn1 was T. brucei: -16.73%; Toxoplasma: 11.7%. Cc1ncc(CN(C)C2CCCN(c3cccnn3)C2)s1 (centres unmarked) read T. brucei: 1.984%; Toxoplasma: 3.194%. For Cc1noc(C)c1CN(C)Cn1nccc1-c1cccnc1 the result was T. brucei: -35.37%; Toxoplasma: -1.08%.

With CC(NCC(=O)Nc1ccc(N2CCCCCC2)cc1)c1cccs1 (centres unmarked) the screen gave T. brucei: -18.09%; Toxoplasma: 44%. For CC1N(CC2CC2)C(=O)COC12CCN(C(=O)c1cscn1)CC2 (centres unmarked) the result was T. brucei: -68.37%; Toxoplasma: 1.543%. Result for O=C(COC1CCCC1)NC(C(=O)Nc1cc[nH]n1)c1ccccc1 (centres unmarked) was T. brucei: -27.9%; Toxoplasma: 1.621%. For CCc1nnc2sc(-c3cc(C(C)C)n[nH]3)nn12 the result was T. brucei: 1.96%; Toxoplasma: -22.19%.

Result for O=C1CCC(=O)N1c1nn(Cc2ccccc2Cl)cc1Cl was T. brucei: 4.406%; Toxoplasma: 24.55%. With CCn1cc2c(n1)C(COCC1CC1)CN(C(=O)c1cnoc1C)C2 (centres unmarked) the screen gave T. brucei: -75.71%; Toxoplasma: 3.182%. Result for CCc1nccn1CCC(=O)N1CCOC(c2ccc(F)cc2)C1 (centres unmarked) was T. brucei: -29.72%; Toxoplasma: -24.49%. With CN1CCN(Cc2n[nH]c(=O)n2CC2CCCCC2)CC1 the screen gave Toxoplasma: 0.6238%.

With CCN(CCO)C[C@@H]1CN(c2nc(C)cc(C)n2)C[C@@H]1CO the screen gave T. brucei: -29.51%; Toxoplasma: -10.37%. Result for CCN1CC2(CCNCC2)COc2ccccc2S1(=O)=O.O=C(O)C(F)(F)F was T. brucei: -11.72%; Toxoplasma: -5.26%. CCN1CCOC(CNCc2ccccc2OCc2ccncc2)C1 (centres unmarked) gave Toxoplasma: 37.91%. Cn1nnc2c1CCN(Cc1ccccc1)C2COCC1CC1 (centres unmarked) gave T. brucei: 16.77%; Toxoplasma: 1.276%.

With CCOCC1CCN(C(=O)c2sc(C)cc2OC(F)F)CC1 the screen gave T. brucei: 11.71%; Toxoplasma: 15.06%. O=C(NCc1ccncc1)Nc1cc(C(F)(F)F)c[nH]c1=O read Toxoplasma: 14.04%. CC(C)NC(=O)NC[C@@]1(COc2cnccn2)C[C@@H](O)[C@@H](O)C1.Cl read T. brucei: -5.684%; Toxoplasma: 2.504%. Result for Cc1ccccc1N1CCN(C(=O)c2ncc(F)cc2F)C(C)C1 (centres unmarked) was T. brucei: 0.7501%; Toxoplasma: -9.22%.

For CCC(=O)N1CCCN(Cn2nc(C)c(Br)c2C)CC1 the result was T. brucei: -47.84%; Toxoplasma: 7.997%. Cc1c[nH]c(CN(C)C(=O)c2cccc(CCC(C)(C)O)c2)n1 gave T. brucei: 21.64%; Toxoplasma: -3.965%.